Columns and labels:
Pigs [1] = conditions: ECG from half an hour prior to coronary occlusion to three hours post occlusion; riluzole ip 8 mg/kg
Pigs [2] = conditions: pig, in vivo, ip, 8 mg/kg
Experimental: Pigs of either sex and weighing between 20 and 35 kg were each anaesthetised with thiopentone sodium (10-15 mg/kg iv) and maintained under general anaesthesia with isoflurane (0.5-2% in oxygen). Artificial ventilation was maintained at a volume of 15 ml/kg and a rate of 12 breaths per minute. […] Subsequent to a mid-stemotomy and division of the pericardium, the left anterior coronary artery (LAD) was occluded mid-way along its length by permanent ligation.

## Nc1nc2ccc(OC(F)(F)F)cc2s1 [riluzole, 2-amino-6-tritluoromethoxybenzothiazole]
Pigs [1]
  P-R interval, riluzole vs control group: no significant differences
  QRS interval, riluzole vs control group: no significant differences
  R-R interval, riluzole vs control group: no significant differences
Pigs [2]
  region of discolouration of the epicardial layer distal to the coronary artery occlusion, vs control group: notably smaller and less discoloured
